# Patent publication US20250223358A1
# The chains behind the UniProt entries cited, without tags or fusion partners. Where a name states a change or a piece, a line headed by the entry shows the natural chain unless it says otherwise.
# UniProt Q95LI5: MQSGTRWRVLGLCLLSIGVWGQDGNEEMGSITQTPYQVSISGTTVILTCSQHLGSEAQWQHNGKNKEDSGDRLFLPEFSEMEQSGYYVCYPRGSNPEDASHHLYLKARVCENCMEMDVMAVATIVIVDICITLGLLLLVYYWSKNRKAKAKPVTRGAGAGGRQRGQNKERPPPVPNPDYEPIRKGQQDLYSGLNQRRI
# UniProt Q95LI8: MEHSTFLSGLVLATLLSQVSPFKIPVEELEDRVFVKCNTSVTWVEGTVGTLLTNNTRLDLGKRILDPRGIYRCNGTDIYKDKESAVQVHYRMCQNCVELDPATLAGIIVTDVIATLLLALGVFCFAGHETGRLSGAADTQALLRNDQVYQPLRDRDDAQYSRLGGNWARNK
# UniProt Q95LI7: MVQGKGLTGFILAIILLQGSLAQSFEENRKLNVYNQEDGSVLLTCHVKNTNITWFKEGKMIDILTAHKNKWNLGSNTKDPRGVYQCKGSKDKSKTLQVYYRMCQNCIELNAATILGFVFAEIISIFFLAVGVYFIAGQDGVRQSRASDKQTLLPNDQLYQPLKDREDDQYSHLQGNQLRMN
# UniProt P07766: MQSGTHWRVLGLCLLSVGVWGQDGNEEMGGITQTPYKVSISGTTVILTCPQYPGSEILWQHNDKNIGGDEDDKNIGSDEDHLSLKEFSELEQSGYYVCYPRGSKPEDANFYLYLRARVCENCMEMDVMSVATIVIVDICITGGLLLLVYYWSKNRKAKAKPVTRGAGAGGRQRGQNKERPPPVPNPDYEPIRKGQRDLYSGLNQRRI
# UniProt P04234: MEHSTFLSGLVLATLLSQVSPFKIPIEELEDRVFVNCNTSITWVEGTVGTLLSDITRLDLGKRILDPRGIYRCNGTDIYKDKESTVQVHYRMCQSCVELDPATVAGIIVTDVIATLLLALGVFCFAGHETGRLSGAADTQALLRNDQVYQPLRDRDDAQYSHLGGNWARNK
# UniProt P09693: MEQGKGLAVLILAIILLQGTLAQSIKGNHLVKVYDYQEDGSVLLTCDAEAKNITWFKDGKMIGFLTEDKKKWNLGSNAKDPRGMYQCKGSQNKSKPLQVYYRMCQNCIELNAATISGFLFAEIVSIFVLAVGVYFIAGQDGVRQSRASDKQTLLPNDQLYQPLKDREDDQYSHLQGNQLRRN
# These are yes or no findings as the source states them, for the method shown. Some entries that bind do so weakly or less than the wild type.
# Target: cynomolgus CD3 (cynomolgus (Macaca fascicularis)) (UniProt Q95LI5+Q95LI8+Q95LI7)
# Assay: FACS on 293T-cynoCD3mix cells
row,binding,Binder
1,binds,"ch127E2D3 (antibody, V domains shown) VH: QVQLQQPGTELVKPGASVKLSCKASGYTFTSYWMHWVKQRPGEGLEWIGNIYPGSSSINYNEKFKSKATLTVDKSSSTAYMQLSSLTSEDSAVYYCARDRSSQYYFDYWGQGTTLTVSS VL: DIVMSQSPSSLAVSAGEKVTMSCKSSQSLLNSRTRKNYLAWYQQKPGQSPKLLIYWASTRESGVPDRFTGSGSGTDFTLTISSVQAEDLAVYYCTQSYNLRTFGGGTKLEIK"
2,binds,"ch124E3D6 (antibody, V domains shown) VH: QVQLQQPGTELVKPGASVKLSCKASGYTFTSYWMHWVKQRPGQGLEWIGNINPSNGDTNYNEKFKSKATLTVDKSSSTAYMQLSSLTSEDSAVYYCARDRSSQYYFDYWGQGTTLTVSS VL: DIVMSQSPSSLAVSAGEKVTMSCKSSQSLLNSRTRKNYLAWYQQKPGQSPKLLIYWASTRESGVPDRFTGSGSGTDFTLTISSVQAEDLAVYYCKQSYNLRTFGGGTKLEIK"
3,binds,"ch133B4C7 (antibody, V domains shown) VH: QVQLQQPGTELVKPGASVKLSCKASGYTFTSYWMHWVKQRPGQGLEWIGNINPSNGDTNFNEKFKSKATLTVDKSSSTAYMQLSSLTSEDSAVYYCARDRSSQYYFDYWGQGTTLTVSS VL: DIVMSQSPSSLAVSAGEKVTMSCNSSQSLLNSRTRKNYLAWYQQKPGQSPKLLIYWASTRESGVPDRFTGSGSGTDFTLTISSVQAEDLAVYYCKQSYTLRTFGGGTKLEIK"
4,binds,"ch140D2B10 (antibody, V domains shown) VH: QVQLQQPGTELVKPGASVKLSCKASGYTFTSYWMHWVKQRPGQGLEWIGNINPSNGESNYNEKFKSKATLTVDKSSSTAYMQLSSLTSEDYAVYYCARDRSSQYYFDYWGQGTTLTVSS VL: DIVMSQSPSSLAVSAGEKVTMSCKSSQSLLNSRTRKNYLAWYQQKPGQSPKLLIYWASTRESGVPDRFTGSGSGTDFTLTISSVQAEDLAVYYCKQSYTLRTFGGGTKLEIK"

# Target: human CD3 (human) (UniProt P07766+P04234+P09693)
# Assay: FACS on Jurkat cells
row,Binder,binding
1,"hu40E9-L5H7 (antibody, V domains shown) VH: EVQLVQSGAEVKKPGSSVKVSCKASGYTFSSYVIHWVRQAPGQGLEWMGYINPGNGVIKYNEKFKGRVTLTSDKSTSTAYMELSSLRSEDTAVYYCARDSYSSYDGFAYWGQGTLVTVSS VL: EIVLTQSPDFQSVTPKEKVTITCSASSSVSYMHWYQQKPDQSPKRLIYDTSKLASGVPSRFSGSGSGTDFTLTINSLEAEDAATYYCQQWRSSPPTFGGGTKVEIK",binds
2,"hu40E9-L2H15 (antibody, V domains shown) VH: EVQLVQSGAEVKKPGSSVKVSCKASGYTFSSYVIHWVRQAPGQGLEWMGYINPYNDVIKYNEKFKGRVTLTSDKSTSTAYMELSSLRSEDTAVYYCARGSYYSYDGFAYWGQGTLVTVSS VL: EIVLTQSPDFQSVTPKEKVTITCSASSSVSYMHWYQQKPDQSPKRLIYDTSKLASGVPSRFSGSGSGTDFTLTINSLEAEDAATYYCQQWSSNPPTFGGGTKVEIK",binds
3,"hu40E9-L4H3 (antibody, V domains shown) VH: EVQLVQSGAEVKKPGSSVKVSCKASGYTFSSYVIHWVRQAPGQGLEWMGYINPYNDVIKYNEKFKGRVTLTSDKSTSTAYMELSSLRSEDTAVYYCARDSYYSYDGFAYWGQGTLVTVSS VL: EIVLTQSPDFQSVTPKEKVTITCSASSSVSYMHWYQQKPDQSPKRLIYDTSKLASGVPSRFSGSGSGTDFTLTINSLEAEDAATYYCQQWRSRPPTFGGGTKVEIK",binds
4,"hu40E9-L2H7 (antibody, V domains shown) VH: EVQLVQSGAEVKKPGSSVKVSCKASGYTFSSYVIHWVRQAPGQGLEWMGYINPGNGVIKYNEKFKGRVTLTSDKSTSTAYMELSSLRSEDTAVYYCARDSYSSYDGFAYWGQGTLVTVSS VL: EIVLTQSPDFQSVTPKEKVTITCSASSSVSYMHWYQQKPDQSPKRLIYDTSKLASGVPSRFSGSGSGTDFTLTINSLEAEDAATYYCQQWSSNPPTFGGGTKVEIK",binds
5,"hu40E9-L2H6 (antibody, V domains shown) VH: EVQLVQSGAEVKKPGSSVKVSCKASGYTFSSYVIHWVRQAPGQGLEWMGYINPYNDVIKYNEKFKGRVTLTSDKSTSTAYMELSSLRSEDTAVYYCARESFSSYDGFAYWGQGTLVTVSS VL: EIVLTQSPDFQSVTPKEKVTITCSASSSVSYMHWYQQKPDQSPKRLIYDTSKLASGVPSRFSGSGSGTDFTLTINSLEAEDAATYYCQQWSSNPPTFGGGTKVEIK",binds
6,"hu40E9-L2H9 (antibody, V domains shown) VH: EVQLVQSGAEVKKPGSSVKVSCKASGYTFSSYVIHWVRQAPGQGLEWMGYINPYSDVIKYNEKFKGRVTLTSDKSTSTAYMELSSLRSEDTAVYYCARESFYSYDGFAYWGQGTLVTVSS VL: EIVLTQSPDFQSVTPKEKVTITCSASSSVSYMHWYQQKPDQSPKRLIYDTSKLASGVPSRFSGSGSGTDFTLTINSLEAEDAATYYCQQWSSNPPTFGGGTKVEIK",binds
7,"hu40E9-L2H10 (antibody, V domains shown) VH: EVQLVQSGAEVKKPGSSVKVSCKASGYTFSSYVIHWVRQAPGQGLEWMGYINPYNDVIKYNEKFKGRVTLTSDKSTSTAYMELSSLRSEDTAVYYCARDSYYSYEAFAYWGQGTLVTVSS VL: EIVLTQSPDFQSVTPKEKVTITCSASSSVSYMHWYQQKPDQSPKRLIYDTSKLASGVPSRFSGSGSGTDFTLTINSLEAEDAATYYCQQWSSNPPTFGGGTKVEIK",binds
8,"hu40E9-L5H8 (antibody, V domains shown) VH: EVQLVQSGAEVKKPGSSVKVSCKASGYTFSSYVIHWVRQAPGQGLEWMGYINPGNDVIKYNEKFKGRVTLTSDKSTSTAYMELSSLRSEDTAVYYCARESYSSYDGFAYWGQGTLVTVSS VL: EIVLTQSPDFQSVTPKEKVTITCSASSSVSYMHWYQQKPDQSPKRLIYDTSKLASGVPSRFSGSGSGTDFTLTINSLEAEDAATYYCQQWRSSPPTFGGGTKVEIK",binds
9,"hu40E9-L4H8 (antibody, V domains shown) VH: EVQLVQSGAEVKKPGSSVKVSCKASGYTFSSYVIHWVRQAPGQGLEWMGYINPGNDVIKYNEKFKGRVTLTSDKSTSTAYMELSSLRSEDTAVYYCARESYSSYDGFAYWGQGTLVTVSS VL: EIVLTQSPDFQSVTPKEKVTITCSASSSVSYMHWYQQKPDQSPKRLIYDTSKLASGVPSRFSGSGSGTDFTLTINSLEAEDAATYYCQQWRSRPPTFGGGTKVEIK",binds
10,"hu40E9-L5H3 (antibody, V domains shown) VH: EVQLVQSGAEVKKPGSSVKVSCKASGYTFSSYVIHWVRQAPGQGLEWMGYINPYNDVIKYNEKFKGRVTLTSDKSTSTAYMELSSLRSEDTAVYYCARDSYYSYDGFAYWGQGTLVTVSS VL: EIVLTQSPDFQSVTPKEKVTITCSASSSVSYMHWYQQKPDQSPKRLIYDTSKLASGVPSRFSGSGSGTDFTLTINSLEAEDAATYYCQQWRSSPPTFGGGTKVEIK",binds
11,"hu40E9-L2H12 (antibody, V domains shown) VH: EVQLVQSGAEVKKPGSSVKVSCKASGYTFSSYVIHWVRQAPGQGLEWMGYINPYNDVIKYNEKFKGRVTLTSDKSTSTAYMELSSLRSEDTAVYYCARDDYYSYDGFAYWGQGTLVTVSS VL: EIVLTQSPDFQSVTPKEKVTITCSASSSVSYMHWYQQKPDQSPKRLIYDTSKLASGVPSRFSGSGSGTDFTLTINSLEAEDAATYYCQQWSSNPPTFGGGTKVEIK",binds
12,"ch40-C12-C10-E9 (antibody, V domains shown) VH: EVQLQLSGPELVKPGASVKMSCKASGYTFSSYVIHWVKQKPGQGLEWIGYINPYNDVIKYNEKFKGKATLTSDKSSSTAYMELSSLTSEDSAVYYCARDSYYSYDGFAYWGQGTLVTVSA VL: QIVLTQSPAIMSASPGEKVTMTCSASSSVSYMHWYQQKSGTSPKRWIYDTSKLASGVPARFSGSGSGTSYSLTISSMEAEDAATYYCQQWSSNPPTFGGGTKVEIK",binds

# More lines, now with the values ahead:
row,binding,Binder
1,binds,"hu40E9-L6H3 (antibody, V domains shown) VH: EVQLVQSGAEVKKPGSSVKVSCKASGYTFSSYVIHWVRQAPGQGLEWMGYINPYNDVIKYNEKFKGRVTLTSDKSTSTAYMELSSLRSEDTAVYYCARDSYYSYDGFAYWGQGTLVTVSS VL: EIVLTQSPDFQSVTPKEKVTITCSASSSVSYMHWYQQKPDQSPKRLIYDTSKLASGVPSRFSGSGSGTDFTLTINSLEAEDAATYYCQQWRSWPPTFGGGTKVEIK"
2,binds,"hu40E9-L4H7 (antibody, V domains shown) VH: EVQLVQSGAEVKKPGSSVKVSCKASGYTFSSYVIHWVRQAPGQGLEWMGYINPGNGVIKYNEKFKGRVTLTSDKSTSTAYMELSSLRSEDTAVYYCARDSYSSYDGFAYWGQGTLVTVSS VL: EIVLTQSPDFQSVTPKEKVTITCSASSSVSYMHWYQQKPDQSPKRLIYDTSKLASGVPSRFSGSGSGTDFTLTINSLEAEDAATYYCQQWRSRPPTFGGGTKVEIK"
3,binds,"hu40E9-L2H11 (antibody, V domains shown) VH: EVQLVQSGAEVKKPGSSVKVSCKASGYTFSSYVIHWVRQAPGQGLEWMGYINPYNDVIKYNEKFKGRVTLTSDKSTSTAYMELSSLRSEDTAVYYCARDSYYSYRAFAYWGQGTLVTVSS VL: EIVLTQSPDFQSVTPKEKVTITCSASSSVSYMHWYQQKPDQSPKRLIYDTSKLASGVPSRFSGSGSGTDFTLTINSLEAEDAATYYCQQWSSNPPTFGGGTKVEIK"
4,binds,"hu40E9-L2H8 (antibody, V domains shown) VH: EVQLVQSGAEVKKPGSSVKVSCKASGYTFSSYVIHWVRQAPGQGLEWMGYINPGNDVIKYNEKFKGRVTLTSDKSTSTAYMELSSLRSEDTAVYYCARESYSSYDGFAYWGQGTLVTVSS VL: EIVLTQSPDFQSVTPKEKVTITCSASSSVSYMHWYQQKPDQSPKRLIYDTSKLASGVPSRFSGSGSGTDFTLTINSLEAEDAATYYCQQWSSNPPTFGGGTKVEIK"
5,binds,"hu40E9-L2H16 (antibody, V domains shown) VH: EVQLVQSGAEVKKPGSSVKVSCKASGYTFSDYVIHWVRQAPGQGLEWMGYINPYNDVIKYNEKFKGRVTLTSDKSTSTAYMELSSLRSEDTAVYYCARDSYYSYDGFAYWGQGTLVTVSS VL: EIVLTQSPDFQSVTPKEKVTITCSASSSVSYMHWYQQKPDQSPKRLIYDTSKLASGVPSRFSGSGSGTDFTLTINSLEAEDAATYYCQQWSSNPPTFGGGTKVEIK"
6,binds,"hu40E9-L2H13 (antibody, V domains shown) VH: EVQLVQSGAEVKKPGSSVKVSCKASGYTFSSYVIHWVRQAPGQGLEWMGYINPYNDVIKYNEKFKGRVTLTSDKSTSTAYMELSSLRSEDTAVYYCARDGYYSYDGFAYWGQGTLVTVSS VL: EIVLTQSPDFQSVTPKEKVTITCSASSSVSYMHWYQQKPDQSPKRLIYDTSKLASGVPSRFSGSGSGTDFTLTINSLEAEDAATYYCQQWSSNPPTFGGGTKVEIK"
